Assay results taken from publication PMC7829778, “Optimization of 1,4-Naphthoquinone Hit Compound: A Computational, Phenotypic, and In Vivo Screening against Trypanosoma cruzi” (Molecules, 2021).
Where “and” joins values, the source holds several entries; their conditions need not be identical. Equal entries are not always repeated.

Assays:
Format in all cases: cell-based, Trypanosoma cruzi
[1] = tested on: T. cruzi trypomastigotes Dm28c-Luc; test: Trypanocidal activity against trypomastigotes, Dm28c-Luc clone (luciferase); conditions: SI = CC50 Vero cells/IC50 trypomastigote forms
Experimental: (§1) T. cruzi Dm28c-Luc clone, genetically modified to express firefly luciferase, and Y strain were used in the drug screening assay. Vero cells were infected with T. cruzi, Dm28c-Luc or Y strain, in a 10:1 parasites/host cell ratio and maintained at 37 °C in humidified atmosphere of 5% CO2. Trypomastigotes were harvested from the infected culture supernatant on the 4th day post-infection (dpi) followed by quantification of the number of parasites/mL in Neubauer chamber.
(§2) Screening of the compounds was performed against trypomastigotes and intracellular amastigote forms. Trypomastigotes (1 × 10^6 parasites/well), Dm28c-Luc clone and Y strain, were incubated for 24 h at 37 °C with the 1,4 naphthoquinone derivatives and Bz (0.41–100 μM) and their viability determined by the activity of the luciferase enzyme, after addition of luciferin substrate (300 μg/mL), or CellTiter Glo. The luminescent signal was detected on the FlexStation 3 reader.

[2] = tested on: intracellular amastigotes of T. cruzi (Dm28c-Luc clone); test: Luminescent screening against intracellular amastigotes in infected Vero cells; conditions: SI = CC50 Vero cells/IC50 of amastigote forms
Experimental: as §1
The effect of the compounds against intracellular amastigotes was screened in 72 h T. cruzi-infected Vero cells. Briefly, Vero cells seeded (1.5 × 10^4 cells/well) on 96-well white plate infected with trypomastigotes (Dm28c-Luc) at a 10:1 multiplicity of parasites/cell. After 24 h of infection, the cultures were washed with PBS and then, treated for 72 h at 37 °C with naphthoquinone derivatives and Bz (0.41–100 µM). After treatment, luciferin (300 µg/mL) was added to the culture and the viability of the parasites was assessed by reading the luminescent signal using the FlexStation 3 reader. Controls were also performed in no-toxic concentrations of DMSO (≤1%).

[3] = tested on: T. cruzi trypomastigotes Y strain; test: Trypanocidal activity against trypomastigotes, Y strain (CellTiter Glo); conditions: SI = CC50 Vero cells/IC50 trypomastigote forms
Experimental: as §1, §2

Structure (SMILES): O=C(Cn1ccnc1[N+](=O)[O-])NCc1ccccc1 [Bz, benznidazole, reference compound]
- SI Trypomastigotes Dm28c-Luc [1]: >28.6
- SI [2]: >357
- SI Trypomastigotes Y [3]: >34.9

Structure (SMILES): O=C1C(O)=C(C(Sc2ccc(Cl)cc2)c2ccc(Cl)cc2)C(=O)c2ccccc21 (stereo not shown) [Compound 1a, 2-((4-chlorophenyl)((4-chlorophenyl)thio)methyl)-3-hydroxynaphthalene-1,4-dione]
- SI Trypomastigotes Dm28c-Luc [1]: 4.8
- SI [2]: 7.0
- SI Trypomastigotes Y [3]: 15.0

Structure (SMILES): O=C1C(O)=C(C(Sc2ccc(Cl)cc2)c2ccccc2Cl)C(=O)c2ccccc21 (stereo not shown) [Compound 1c, 2-((2-chlorophenyl)((4-chlorophenyl)thio)methyl)-3-hydroxynaphthalene-1,4-dione]
- SI Trypomastigotes Dm28c-Luc [1]: 5.1
- SI [2]: 4.7
- SI Trypomastigotes Y [3]: 10.2

Structure (SMILES): O=C1C(O)=C(C(Sc2ccc(Cl)cc2Cl)c2ccccc2)C(=O)c2ccccc21 (stereo not shown) [Compound 1d, 2-(((2,4-dichlorophenyl)thio)(phenyl)methyl)-3-hydroxynaphthalene-1,4-dione]
- SI Trypomastigotes Dm28c-Luc [1]: 8.9
- SI [2]: 6.2
- SI Trypomastigotes Y [3]: 29.3

Structure (SMILES): O=C1C(O)=C(C(Sc2ccc(Cl)cc2)c2cn(-c3cc(Cl)cc(Cl)c3)nn2)C(=O)c2ccccc21 (stereo not shown) [Compound 1e, 2-(((4-chlorophenyl)thio)(1-(3,5-dichlorophenyl)-1H-1,2,3-triazol-4-yl)methyl)-3-hydroxynaphthalene-1,4-dione]
- SI Trypomastigotes Dm28c-Luc [1]: 7.5
- SI [2]: 3.7
- SI Trypomastigotes Y [3]: 7.2

Structure (SMILES): COc1ccc(C(Sc2ccc(Cl)cc2)C2=C(O)C(=O)c3ccccc3C2=O)cc1 (stereo not shown) [Compound 1g, 2-(((4-chlorophenyl)thio)(4-methoxyphenyl)methyl)-3-hydroxynaphthalene-1,4-dione]
- SI [2]: > 10 and 14.9

Structure (SMILES): COc1ccc(C(Sc2ccccc2C)C2=C(O)C(=O)c3ccccc3C2=O)cc1 (stereo not shown) [Compound 2b, 2-Hydroxy-3-((4-methoxyphenyl)(o-tolylthio)methyl) naphthalene-1,4-dione]
- SI Trypomastigotes Dm28c-Luc [1]: 1.7
- SI [2]: 3.9
- SI Trypomastigotes Y [3]: 1.5

Structure (SMILES): COc1ccc(C(Sc2ccc(F)cc2)C2=C(O)C(=O)c3ccccc3C2=O)cc1 (stereo not shown) [Compound 2e, 2-(((4-fluorophenyl)thio)(4-methoxyphenyl)methyl)-3-hydroxynaphthalene-1,4-dione]
- SI Trypomastigotes Dm28c-Luc [1]: 1.9
- SI [2]: 7.0
- SI Trypomastigotes Y [3]: 2.3

Structure (SMILES): COc1ccc(C(Sc2ccc3ccccc3c2)C2=C(O)C(=O)c3ccccc3C2=O)cc1 (stereo not shown) [Compound 2h, 2-Hydroxy-3-((4-methoxyphenyl)(naphthalen-2-ylthio)methyl) naphthalene-1,4-dione]
- SI Trypomastigotes Dm28c-Luc [1]: 2.9
- SI [2]: 2.8
- SI Trypomastigotes Y [3]: 2.5
